Values from PubChem BioAssay AID1259405 (NCATS, 2018).

Purpose: 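Silenced genes that increase secreted GFP made by CHO cells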 (primary screen)
Cells: Chinese hamster CHO-K1 ovary cells with stable secreted eGFP expression
Reagents: single siRNA against mouse genes, 0.8 pmol siRNA per well (2 µl of 400 nM stock)
Time to read-out: 3 days
Read-out: 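Per-well intracellular GFP measured by laser scanning cytometry, plus viability from ATP luminescence, each relative to plate median of non-targeting control wells, in %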
Scale: GFP, % of control: higher = more GFP per well, higher productivity; viability (ATP), % of control: higher = more viable cells (more ATP)
Hit rule: 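Called active when intracellular GFP, relative to negative control, is at or above 120%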
Shown is one part, drawn at random, of about 50,000 reagents tested. About 4,000 of them (8%) were called active. 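Mouse siRNA library applied to hamster cells; one well for each siRNA.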 Entries without a mark were called inactive.

With Cyp2j9 (cytochrome P450, family 2, subfamily j, polypeptide 9) [SID363544228], what does the deposit list?
GFP, % of control: 80.1; viability (ATP), % of control: 76.4

How did the screen score Cyp2j9 (cytochrome P450, family 2, subfamily j, polypeptide 9) [SID363550556]?
GFP, % of control: 61.9; viability (ATP), % of control: 66

How did the screen score Cyp2j9 (cytochrome P450, family 2, subfamily j, polypeptide 9) [SID363557105]?
GFP, % of control: 77.1; viability (ATP), % of control: 84.2

With Gpr139 (G protein-coupled receptor 139) [SID363544117], how do the results read?
GFP, % of control: 71; viability (ATP), % of control: 72

For Gpr139 (G protein-coupled receptor 139) [SID363550445], what was measured?
GFP, % of control: 83; viability (ATP), % of control: 99.8

For Gpr139 (G protein-coupled receptor 139) [SID363556994], what does the deposit list?
GFP, % of control: 40.5; viability (ATP), % of control: 56.7

For Alox5 (arachidonate 5-lipoxygenase) [SID363572912], what does the deposit list?
GFP, % of control: 70.8; viability (ATP), % of control: 72.3

How did the screen score Alox5 (arachidonate 5-lipoxygenase) [SID363577488]?
GFP, % of control: 75.5; viability (ATP), % of control: 82.5

With Alox5 (arachidonate 5-lipoxygenase) [SID363581008], how do the results read?
GFP, % of control: 25; viability (ATP), % of control: 48

What is on record for Fxyd3 (FXYD domain-containing ion transport regulator 3) [SID363547346]?
GFP, % of control: 246 (active); viability (ATP), % of control: 97.5

How did the screen score Fxyd3 (FXYD domain-containing ion transport regulator 3) [SID363558115]?
GFP, % of control: 55.2; viability (ATP), % of control: 37.2

What did the screen give for Fxyd3 (FXYD domain-containing ion transport regulator 3) [SID363559873]?
GFP, % of control: 92.8; viability (ATP), % of control: 86.5

With Fbxo5 (F-box protein 5) [SID363540034], what was measured?
GFP, % of control: 61.5; viability (ATP), % of control: 75.3

What is on record for Fbxo5 (F-box protein 5) [SID363561335]?
GFP, % of control: 89.4; viability (ATP), % of control: 72.8

With Fbxo5 (F-box protein 5) [SID363564371], what was measured?
GFP, % of control: 99.8; viability (ATP), % of control: 84

Entries listed so far marked active:
Fxyd3 (FXYD domain-containing ion transport regulator 3) [SID363547346] → GFP, % of control = 246 (active); viability (ATP), % of control = 97.5

The listing continues:
What did the screen give for Max (Max protein) [SID363573578]?
GFP, % of control: 96.5; viability (ATP), % of control: 65.5

With Max (Max protein) [SID363581322], how do the results read?
GFP, % of control: 49; viability (ATP), % of control: 49.8

What is on record for Max (Max protein) [SID363583786]?
GFP, % of control: 52.5; viability (ATP), % of control: 79.4

With Tdpoz1 (TD and POZ domain containing 1) [SID363547513], what does the deposit list?
GFP, % of control: 48.2; viability (ATP), % of control: 79

For Tdpoz1 (TD and POZ domain containing 1) [SID363558282], what does the deposit list?
GFP, % of control: 60.1; viability (ATP), % of control: 73.1

What is on record for Tdpoz1 (TD and POZ domain containing 1) [SID363560040]?
GFP, % of control: 57.9; viability (ATP), % of control: 62.2

For Procr (protein C receptor, endothelial) [SID363568626], how do the results read?
GFP, % of control: 121 (active); viability (ATP), % of control: 82.5

For Procr (protein C receptor, endothelial) [SID363576018], what was measured?
GFP, % of control: 70.1; viability (ATP), % of control: 66.2

What is on record for Procr (protein C receptor, endothelial) [SID363578834]?
GFP, % of control: 44.1; viability (ATP), % of control: 43

For C1qtnf4 (C1q and tumor necrosis factor related protein 4) [SID363546932], how do the results read?
GFP, % of control: 63.8; viability (ATP), % of control: 78.4

For C1qtnf4 (C1q and tumor necrosis factor related protein 4) [SID363549744], what does the deposit list?
GFP, % of control: 78.3; viability (ATP), % of control: 71.2

How did the screen score C1qtnf4 (C1q and tumor necrosis factor related protein 4) [SID363587798]?
GFP, % of control: 187 (active); viability (ATP), % of control: 140

With Ambp (alpha 1 microglobulin/bikunin precursor) [SID363572965], what does the deposit list?
GFP, % of control: 33.2; viability (ATP), % of control: 58.4

With Ambp (alpha 1 microglobulin/bikunin precursor) [SID363577541], what does the deposit list?
GFP, % of control: 80.4; viability (ATP), % of control: 53.9

With Ambp (alpha 1 microglobulin/bikunin precursor) [SID363581061], what does the deposit list?
GFP, % of control: 119; viability (ATP), % of control: 108

For Insl6 (insulin-like 6) [SID363541564], how do the results read?
GFP, % of control: 62.3; viability (ATP), % of control: 49.8

With Insl6 (insulin-like 6) [SID363556191], how do the results read?
GFP, % of control: 47.8; viability (ATP), % of control: 38.7

How did the screen score Insl6 (insulin-like 6) [SID363566480]?
GFP, % of control: 61.9; viability (ATP), % of control: 54.5

What is on record for Or4f62 (olfactory receptor family 4 subfamily F member 62) [SID363554403]?
GFP, % of control: 80.3; viability (ATP), % of control: 82

For Or4f62 (olfactory receptor family 4 subfamily F member 62) [SID363567850], what does the deposit list?
GFP, % of control: 62.6; viability (ATP), % of control: 21.3

How did the screen score Or4f62 (olfactory receptor family 4 subfamily F member 62) [SID363585207]?
GFP, % of control: 37.1; viability (ATP), % of control: 86.4

For Rhbdl3 (rhomboid like 3) [SID363574488], what does the deposit list?
GFP, % of control: 127 (active); viability (ATP), % of control: 111

With Rhbdl3 (rhomboid like 3) [SID363575544], what was measured?
GFP, % of control: 62.5; viability (ATP), % of control: 27.8

For Rhbdl3 (rhomboid like 3) [SID363580120], what does the deposit list?
GFP, % of control: 70.7; viability (ATP), % of control: 68

How did the screen score Mul1 (mitochondrial ubiquitin ligase activator of NFKB 1) [SID363540805]?
GFP, % of control: 142 (active); viability (ATP), % of control: 108

Which result is listed for Mul1 (mitochondrial ubiquitin ligase activator of NFKB 1) [SID363543256]?
GFP, % of control: 86.4; viability (ATP), % of control: 77.2

How did the screen score Mul1 (mitochondrial ubiquitin ligase activator of NFKB 1) [SID363552749]?
GFP, % of control: 128 (active); viability (ATP), % of control: 65.5
